Data as given in patent publication US20100234306A1, “USE OF A PEPTIDE AS A THERAPEUTIC AGENT” (priority 2007, published 2010).
Part of at least one peptide drawing is inferred or uncertain, most often the ends. Where no end group is shown, it is not given here.

Columns and labels:
[1] = test system: TNF alpha production, macrophages from human PBMC; test: TNF alpha production assay in LPS-stimulated macrophages (ELISA); assay type: cell-based; details: lipopolysaccharide 200 ng/ml, overnight, 10 micrograms per ml
A549 cells [2] = test: Propidium iodide cell cycle assay; assay type: cell-based, human; details: 24 hours, 10 micrograms per ml, propidium iodide FACS
[3] = test system: IL-5 spleen cells; TH2 response; test: Th1/Th2 cytokine profiling assay: IL-5; assay type: cell-based; details: spleen cells of Ovalbumin-immunized Balb/c mice, Ovalbumin restimulation, 72 hours; 10 micrograms per ml
A549 cells [4] = test: Apoptosis induction assay (Annexin-5); assay type: cell-based, human; details: 24 hours, Annexin-5 apoptosis assay
RAW 264.7 cells = test: Phagocytosis assay (Fluorescein-labeled Escherichia coli, flow cytometry); assay type: cell-based, mouse; details: 60 min, 10 micrograms per ml
[5] = test system: TNF-a spleen cells; TH1 response; test: Th1/Th2 cytokine profiling assay: TNF-α; assay type: cell-based; details: spleen cells of Ovalbumin-immunized Balb/c mice, Ovalbumin restimulation, 72 hours; 10 micrograms per ml
A549 cells [6] = test: Apoptosis prevention assay (C2 ceramide, Annexin-5); assay type: cell-based, human; details: A549 cells pretreated 30 min, 10 micrograms per ml, then C2 ceramide
[7] = test system: Primary Human endothelial cells (HUVEC); test: Endothelial cell migration assay; assay type: cell-based; details: 22 hours, 10 micrograms per ml
IL-2 spleen cells = test: Th1/Th2 cytokine profiling assay: IL-2; assay type: cell-based; details: spleen cells of Ovalbumin-immunized Balb/c mice, Ovalbumin restimulation, 72 hours; 10 micrograms per ml
[8] = test system: Human Peripheral Blood Mononuclear Cells (PBMC), T cell proliferation; test: T cell proliferation assay (PHA, 3H-thymidine); assay type: cell-based; details: 3H-thymidine incorporation, 10 micrograms per ml
[9] = test system: IL-4 spleen cells; TH2 response; test: Th1/Th2 cytokine profiling assay: IL-4; assay type: cell-based; details: spleen cells of Ovalbumin-immunized Balb/c mice, Ovalbumin restimulation, 72 hours; 10 micrograms per ml
HCMV strain AD169 = test: HCMV plaque reduction assay in MRC-5 cells; assay type: cell-based; details: HCMV AD169 in MRC-5 cells, 7-10 days; peptide 10 micrograms per ml
[10] = test system: IFNγ spleen cells; TH1 response; test: Th1/Th2 cytokine profiling assay: IFN-γ; assay type: cell-based; details: spleen cells of Ovalbumin-immunized Balb/c mice, Ovalbumin restimulation, 72 hours; 10 micrograms per ml
[11] = test system: hepatitis B virus (HBV) ayw strain; test: HBV replication assay in HepG2-2.2.15 cells (TaqMan PCR of secreted HBV DNA); details: 6 days, HBV DNA by TaqMan PCR, peptide 10 micrograms per ml
HUVEC = test: Endothelial tube formation assay; assay type: cell-based, human; details: 20 hours, 10 micrograms per ml
HIV-1IIIB = test: HIV-1 antiviral CPE assay in CEM-SS cells (MTS); details: 6 days post-infection, peptide 10 micrograms per ml
[12] = test system: Human Peripheral Blood Mononuclear Cells (PBMC), B cell proliferation; test: B cell proliferation assay (SAC plus Interleukin-2, 3H-thymidine); assay type: cell-based; details: SAC plus Interleukin-2, 3H-thymidine incorporation, 10 micrograms per ml

## MQMKKVLDS-OH [AIP-1]
[1]
  % of LPS induction: 106.8%
A549 cells [2]
  Cell cycle analysis G0/G1: 56.0
  Cell cycle analysis G2/M: 11.0
  Cell cycle analysis S: 33.0
[3]
  IL-5 spleen cells; TH2 response (% of control): 61.2 % of control
A549 cells [4]
  % of induction: 0.6%
RAW 264.7 cells
  % of control phagocytosis: 120.0%
[5]
  TNF-a spleen cells; TH1 response (% of control): 100.0 % of control
A549 cells [6]
  % prevention of ceramide induced apoptosis: 0.0%
[7]
  % inhibition of migration: −16%
IL-2 spleen cells
  IL-2 spleen cells (% of control): 112.7 % of control
[8]
  % of PHA induced control: 95.8%
[9]
  IL-4 spleen cells; TH2 response (% of control): 0.0 % of control
HCMV strain AD169
  % plaque reduction: 0.0%
[10]
  IFNγ spleen cells; TH1 response (% of control): 72.5 % of control
[11]
  % inhibition of HBV replication in HEP G2 cells: 0.0%
HUVEC
  % inhibition of tube formation: 4.0%
HIV-1IIIB
  % CPE reduction in HIV-1 infected CEM-SS cells: 0.0%
[12]
  % of SAC/IL2 induced control: 104.2%
